Reference: PubChem BioAssay AID2551 (National Center for Advancing Translational Sciences (NCATS), 2010)
The campaign covered roughly 310,000 compounds. About 17,000 (5.5%) were called active. The inconclusive results got no clear call from the source; some entries with a clear call stand among them for comparison. Calls come from the whole dose curve; as a rule, active = well fitted inhibition curve with a large enough effect; inconclusive = small, poorly fitted or top-dose-only effect, or effect the other way; inactive = no such curve, though single readings can be large or run the other way. Potencies of inconclusive entries are doubtful fits and often do not repeat.

The chains behind the UniProt entries cited, without tags or fusion partners. Where a name states a change or a piece, a line headed by the entry shows the natural chain unless it says otherwise.
UniProt P51450: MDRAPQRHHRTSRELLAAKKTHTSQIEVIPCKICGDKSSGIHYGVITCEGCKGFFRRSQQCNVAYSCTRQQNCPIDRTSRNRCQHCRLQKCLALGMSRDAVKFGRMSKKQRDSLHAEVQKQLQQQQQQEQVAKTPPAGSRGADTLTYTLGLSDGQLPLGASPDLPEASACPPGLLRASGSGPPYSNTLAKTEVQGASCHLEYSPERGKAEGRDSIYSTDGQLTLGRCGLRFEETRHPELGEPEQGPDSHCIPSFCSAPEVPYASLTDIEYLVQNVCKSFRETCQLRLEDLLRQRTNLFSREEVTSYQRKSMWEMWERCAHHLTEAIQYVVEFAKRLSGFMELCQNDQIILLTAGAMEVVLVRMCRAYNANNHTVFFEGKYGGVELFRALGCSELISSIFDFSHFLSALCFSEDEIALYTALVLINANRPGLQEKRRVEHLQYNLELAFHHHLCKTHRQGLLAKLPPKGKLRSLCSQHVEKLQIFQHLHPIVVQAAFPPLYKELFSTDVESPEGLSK

Biological target: Nuclear receptor ROR-gamma (Mus musculus) (UniProt P51450)
Experiment: qHTS for inhibitors of ROR gamma transcriptional activity; note: nearly all actives have a fitted effect of over 60% in size
Conditions: Drosophila S2 Gal4-RORgamma UAS-luciferase reporter, 20 h; activity change, negative = inhibition: at 53.6 µM (top of the series)
How it was run: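 Drosophila S2 cells stably expressing Gal4-DBD/mouse RORγ fusion under metallothionein promoter plus UAS-luciferase; compound 1 h, then 700 uM CuSO4 induction for 20 h at ambient temperature; inhibition read as reduced luminescence.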
% is set by controls: 0 for no effect and ±100 for the full control effect; potency is the fitted concentration of half-maximal effect.

Compound | Potency | activity change, negative = inhibition
Clc1cccc(CN2COc3c(cc(Cl)c4cccnc34)C2)c1 | active: 0.562 µM | –
C=CCn1c(-c2c(C)nc3cc(C)ccn23)n[nH]c1=S | inconclusive: 11.2 µM [inhibitor, single point] | –
CCOC(=O)N1CCN(S(=O)(=O)c2ccc(C)cc2)C1c1ccc(OC)cc1 (stereo unspecified) | – | inactive: -10.7%
CCOc1ccc(Nc2nc3c(c(=O)[nH]2)CCCC3)cc1 | inconclusive: 14.1 µM [activator, single point] | –
Cc1ccc(NC(=O)NC2=NN(c3ccccc3)C(=O)/C2=C2/CCCN2C)cc1 | inconclusive: 25.1 µM [activator, partial curve, poor fit] | –
O=C(NCc1ccccn1)C1CCC(CNS(=O)(=O)c2cccc3nsnc23)CC1 (stereo unspecified) | inconclusive: 7.08 µM [activator, partial curve] | –
Cc1ccc(C)n1-c1ccc(N2CCOCC2)cc1 | inconclusive: 2.82 µM [inhibitor, single point] | –
CCCOc1ccc(N2C(=O)CC(NCc3ccc(S(N)(=O)=O)cc3)C2=O)cc1 (stereo unspecified) | inconclusive: 1.26 µM [activator, full curve, poor fit] | –
CCn1c(CNc2ccc(Cl)cc2)nnc1SCC(=O)OC1CCCCC1 | inconclusive: 0.562 µM [activator, full curve, poor fit] | –
CCOC(=O)CSc1nc2ccccc2c(=O)n1CC(C)C | inconclusive: 22.4 µM [activator, single point] | –
Cc1nn(Cc2ccc(Cl)cc2)c(C)c1NC(=O)/C=C/c1cnn(C)c1 | inconclusive: 35.5 µM [activator, single point] | –
Cc1cc(Cl)cc(C)c1OCCCCCn1ccnc1 | inconclusive: 2 µM [inhibitor, partial curve] | –
Cc1ccccc1OCCCC(=O)NCc1ccco1 | – | inactive: 24.8%
COc1ccc(OC)c(NS(=O)(=O)c2ccc(NC(=O)c3ccc(NS(C)(=O)=O)cc3)cc2)c1 | inconclusive: 31.6 µM [activator, single point] | –
O=C1CC(SC(=Nc2ccccc2)Nc2ccccc2)C(=O)N1c1cccc(Cl)c1 (stereo unspecified) | inconclusive: 17.8 µM [activator, single point] | –
COc1cccc(/C=N/NC(=S)Nc2cccc(C(=O)O)c2)c1O | inconclusive: 15.8 µM [inhibitor, single point] | –
O=C(NCCc1ccccc1)c1ccc([N+](=O)[O-])cc1 | active: 7.94 µM | –
COc1ccccc1NC(=O)CSc1nc2n[nH]c(C)c2c(=N)n1-c1ccccc1Cl | inconclusive: 10 µM [activator, partial curve] | –
CCN(CC)c1ccc(NC(=O)C2CC(=O)N(Cc3ccccc3)C2)cc1 (stereo unspecified) | inconclusive: 11.2 µM [activator, partial curve] | –
CC1CC(C)CN(S(=O)(=O)c2ccc(NC(=S)NC(=O)c3ccccc3)cc2)C1 (stereo unspecified) | inconclusive: 0.0013 µM [inhibitor] | –
COc1ccc(N(C(=O)c2ccco2)C(C(=O)NC2CCCCC2)c2cccs2)cc1OC (stereo unspecified) | inconclusive: 5.62 µM [activator, single point] | –
Cc1ccc(NC(=O)N2CCCC2C(=O)Nc2nnc(C(C)C)s2)cc1 (stereo unspecified) | – | inactive: -5.21%
CCOC(=O)C1CCCN(C2CC(=O)N(c3cccc(C(F)(F)F)c3)C2=O)C1 (stereo unspecified) | inconclusive: 35.5 µM [inhibitor, single point] | –

Taken from above.
In Potency, `CCOC(=O)C1CCCN(C2CC(=O)N(c3cccc(C(F)(F)F)c3)C2=O)C1` (stereo unspecified) reads inconclusive: 35.5 µM [inhibitor, single point]
In Potency, `CCOc1ccc(Nc2nc3c(c(=O)[nH]2)CCCC3)cc1` reads inconclusive: 14.1 µM [activator, single point]

(further entries)

Compound | Potency | activity change, negative = inhibition
CCC(C(=O)O)N1C(=O)/C(=C/c2cccn2C)SC1=S (stereo unspecified) | – | inactive: -18.5%
Cc1nc2cc(NC(=O)NCCC3=CCCCC3)ccc2o1 | inconclusive: 0.141 µM [activator, partial curve] | –
COc1ccc(/C(N)=N/OC(=O)CCCc2ccccc2)cc1OC | – | inactive: 18.5%
CC(C)c1cc(C(=O)N/N=C/c2cccnc2)cs1 | inconclusive: 4.47 µM [activator, partial curve] | –
CCN(CC)c1nc(-c2ccccc2)ncc1S(=O)(=O)c1ccc(C)cc1 | inconclusive: 17.8 µM [activator, partial curve, poor fit] | –
COc1ccc(NC(=O)CSc2ccc(C)cc2)cc1 | inconclusive: 6.31 µM [activator, single point] | –
CNc1nc(-c2ccccc2)nnc1C(F)(F)F | – | inactive: -28.3%
CC1(C)C2CC[C@]1(C)[C@@H](O)C2 | – | inactive: 8.89%
CCc1ccc2oc(-c3cc(N=Cc4cccc(OC)c4O)ccc3O)nc2c1 | active: 11.2 µM | –
O=C1/C(=C\c2cccs2)SC(=S)N1C1CCS(=O)(=O)C1 (stereo unspecified) | inconclusive: 14.1 µM [activator, single point] | –
COC(=O)c1cccc(Cn2nc(C)c([N+](=O)[O-])c2C)c1 | – | inactive: 38%
CCCCc1ccc(S(=O)(=O)NC2CCS(=O)(=O)C2)cc1 (stereo unspecified) | inconclusive: 11.2 µM [activator, partial curve] | –
Cc1cc(C)n(-c2ccc(C(=O)Nc3ccc(S(=O)(=O)N(C)C)cc3)cc2)n1 | inconclusive: 15.8 µM [activator, single point] | –
O=c1c2ccccc2nc(-c2ccccc2)n1CCCN1CCOCC1 | – | inactive: 24.9%
COc1ccc(CCN(C)c2ccc(S(=O)(=O)N3CCCC3)cc2[N+](=O)[O-])cc1OC | – | inactive: 35.4%
O=C(CCl)Nc1cc(-c2ccccc2)nn1-c1ccccc1 | active: 14.1 µM | –
Cc1ccc(S(=O)(=O)NCCC(=O)Nc2cc(S(=O)(=O)N(C)C)ccc2C)cc1C | – | inactive: 3.24%
O=C(COC(=O)Cc1ccc(S(=O)(=O)N2CCOCC2)s1)NCCc1ccccc1 | inconclusive: 22.4 µM [inhibitor, single point] | –
COc1ccc2nc(NC(=O)CSc3cn[nH]n3)sc2c1 | – | inactive: 11.4%
Cc1cccc(-n2c(C)cc(/C=N/n3cnnc3)c2C)c1 | inconclusive: 22.4 µM [inhibitor, single point] | –
CCc1nnc(N/N=C/c2cccs2)n1N | inconclusive: 11.2 µM [inhibitor, single point] | –
Cn1cc(S(=O)(=O)N2CCCC2)cc1C(=O)NCCc1ccccc1 | inconclusive: 20 µM [activator, single point] | –
CCOc1ccc(NC(=O)CSc2nc3c(c(=O)n2C)SC(C)C3)cc1 (stereo unspecified) | inconclusive: 12.6 µM [activator, partial curve] | –
